Data as given in PubChem BioAssay AID1159584 (Peter MacCallum Cancer Centre, 2016)

- Purpose: 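Knock-downs that harm CDH1-null cells more than parental MCF10A cells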 (primary screen)
- Cell system: human MCF10A breast epithelial cells, parental and CDH1-null
- Knock-down reagent: siRNA against human genes
- Measured: 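Cell viability by CellTiter-Glo ATP luminescence, each line scaled to the mean of mock wells across plates, then CDH1-null over parental ratio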
- Scale: CDH1-null / parental viability ratio: higher = CDH1-null cells survive relatively better than parental
Shown is a random part of about 18,000 reagents tested. Not all columns of the deposit are shown. Not stated in the record: the amount of reagent, the time to read-out.

For PSMG1 (GeneID 8624) the deposit lists CDH1-null / parental viability ratio 0.84. After knock-down of LRRC4B (GeneID 94030) the results were CDH1-null / parental viability ratio 1.33. After knock-down of CDYL (GeneID 9425), the screen gave CDH1-null / parental viability ratio 1. IRF1 (GeneID 3659) gave CDH1-null / parental viability ratio 0.9. Against ASMT (GeneID 438), the entry reads CDH1-null / parental viability ratio 1.09. DPF3 (GeneID 8110) gave CDH1-null / parental viability ratio 0.84.

NEMF (GeneID 9147) gave CDH1-null / parental viability ratio 1.08. Against SH3RF2 (GeneID 153769) the deposit lists CDH1-null / parental viability ratio 1.05. Depletion of NEURL4 (GeneID 84461) resulted in: CDH1-null / parental viability ratio 1.37. SPINK6 (GeneID 404203) scored CDH1-null / parental viability ratio 0.95. DNAH3 (GeneID 55567) showed CDH1-null / parental viability ratio 0.86. Knock-down of FN3KRP (GeneID 79672) gave: CDH1-null / parental viability ratio 0.74.

LRRC32 (GeneID 2615) scored CDH1-null / parental viability ratio 0.96. For UBXN11 (GeneID 91544), the values are CDH1-null / parental viability ratio 1.05.

Records above whose target name begins with S or s (2):
SH3RF2 (GeneID 153769) — CDH1-null / parental viability ratio = 1.05
SPINK6 (GeneID 404203) — CDH1-null / parental viability ratio = 0.95
